Data taken from paper PMC11729561.

Biological target: RPS23RG1 (endogenous, mouse brain) (mouse (endogenous in mouse brain synaptosomes))
Experiment: co-IP; mouse brain synaptosome lysates; IP with IgG and an anti-RR1 antibody; immunoblotting

| Binder | binding |
| --- | --- |
| MDGA2 (endogenous, mouse brain) (protein, UniProt P60755 26-924) PPTVRIVHSGLACNIEEERYSERVYTIREGETLELTCLVTGHPRPQIRWTKTAGSASDRFQDSSVFNETLRITNIQRHQGGRYYCKAENGLGSPAIKSIRVDVYYLDDPVVTVHQSIGEAKEQFYYERTVFLRCVANSNPPVRYSWRRGQEVLLQGSDKGVEIYEPFFTQGETKILKLKNLRPQDYANYSCIASVRNVCNIPDKMVSFRLSNKTASPSIKLLVDDPIVVNPGEAITLVCVTTGGEPTPSLTWVRSFGTLPEKIVLNGGTLTIPAITSDDAGTYSCIANNNVGNPAKKSTNIIVRALKKGRFWITPDPYHKDDNIQIGREVKISCQVEAVPSEELTFSWFKNGRPLRSSERMVITQTDPDVSPGTTNLDIIDLKFTDFGTYTCVASLKGGGISDISIDVNISSSTVPPNLTVPQEKSPLVTREGDTIELQCQVTGKPKPIILWSRADKEVAMPDGTMQMESYDGTLRIVNVSREMSGMYRCQTSQYNGFNVKPREALVQLIVQYPPAVEPAFLEIRQGQDRSVTMSCRVLRAYPIRVLTYEWRLGNKLLRTGQFDSQEYTEYPLKSLSNENYGVYNCSIINEAGAGRCSFLVTGKAYAPEFYYDTYNPVWQNRHRVYSYSLQWTQMNPDAVDRIVAYRLGIRQAGQQRWWEQEIKINGNIQKGELITYNLTELIKPEAYEVRLTPLTKFGEGDSTIRVIKYTGEFHCGFEDGNICLFTQDDTDNFDWTKQSTATRNTKYTPNTGPSADRSGSKEGFYMYIETSRPRLEGEKARLLSPVFSIAPKNPYGPTNSAYCFSFFYHMYGQHIGVLNVYLRLKGQTTIENPLWSSSGNKGQRWNEAHVNIYPITSFQLIFEGIRGPGIEGDIAIDDVSIAEGECAKQDLPTKNSVD | binds |
| SHANK2 (endogenous, mouse brain synaptosomes) (protein, UniProt Q80Z38 1-1476) MKSLLNAFTKKEVPFREAPAYSNRRRRPPNTLAAPRVLLRSNSDNNLNAGAPEWAVCSAATSHRSLSPQLLQQTPSKPDGATKSLGSYTPGPRSRSPSLNRLGGTAEDGKRTQPHWHVGSPFTPGANKDSLSTFEYPGPRRKLYSAVPGRLFVAVKPYQPQVDGEIPLHRGDRVKVLSIGEGGFWEGSARGHIGWFPAECVEEVQCKPRDSQAETRADRSKKLFRHYTVGSYDSFDAASDCIIEDKTVVLQKKDNEGFGFVLRGAKADTPIEEFTPTPAFPALQYLESVDEGGVAWQAGLRTGDFLIEVNNENVVKVGHRQVVNMIRQGGNHLILKVVTVTRNLDPDDTARKKAPPPPKRAPTTALTLRSKSMTAELEELGLSLVDKASVRKKKDKPEEIVPASKPSRTAENVAIESRVATIKQRPTSRCFPAASDVNSVYERQGIAVMTPTVPGSPKGPFLGLPRGTMRRQKSIDSRIFLSGITEEERQFLAPPMLKFTRSLSMPDTSEDIPPPPQSVPPSPPPPSPTTYNCPRSPTPRVYGTIKPAFNQNPVVAKVPPATRSDTVATMMREKGMFYRRELDRFSLDSEDVYSRSPAPQAAFRTKRGQMPENPYSEVGKIASKAVYVPAKPARRKGVLVKQSNVEDSPEKTCSIPIPTIIVKEPSTSSSGKSSQGSSMEIDPQATEPGQLRPDDSLTVSSPFAAAIAGAVRDREKRLEARRNSPAFLSTDLGDEDVGLGPPAPRMQASKFPEEGGFGDEDETEQPLLPTPGAAPRELENHFLGGGEAGAQGEAGGPLSSTSKAKGPESGPAAPLKSSSPAGPENYVHPLTGRLLDPSSPLALALSARDRAMQESQQGHKGEAPKADLNKPLYIDTKMRPSVESGFPPVTRQNTRGPLRRQETENKYETDLGKDRRADDKKNMLINIVDTAQQKSAGLLMVHTVDVPMAGPPLEEEEDREDGDTKPDHSPSTVPEGVPKTEGALQISAAPEPAVAPGRTIVAAGSVEEAVILPFRIPPPPLASVDLDEDFLFTEPLPPPLEFANSFDIPDDRAASVPALADLVKQKKNDTSQPPTLNSSQPANSTDSKKPAGISNCLPSSFLPPPESFDAVTDSGIEEVDSRSSSDHHLETTSTISTVSSISTLSSEGGESMDTCTVYADGQAFVVDKPPVPPKPKMKPIVHKSNALYQDTLPEEDTDGFVIPPPAPPPPPGSAQAGVAKVIQPRTSKLWGDVPEVKSPILSGPKANVISELNSILQQMNRGKSVKPGEGLELPVGAKSANLAPRSPEVMSTVSGTRSTTVTFTVRPGTSQPITLQSRPPDYESRTSGPRRAPSPVVSPTELSKEILPTPPPPSATAASPSPTLSDVFSLPSQSPAGDLFGLNPAGRSRSPSPSILQQPISNKPFTTKPVHLWTKPDVADWLESLNLGEHKETFMDNEIDGSHLPNLQKEDLIDLGVTRVGHRMNIERALKQLLDR | no binding |

No constants are given. Whether binding was seen depends on the method and setting. In cells and extracts the contact can be indirect. Binding can be weak; no strength is given.
